This note sets out measurements from PubChem BioAssay AID493014 (National Center for Advancing Translational Sciences (NCATS), 2011).

This is one part of the list. The main result of the screen is listed elsewhere. These columns were measured beside it and carry no call. Compounds called inactive in the main read-out are mostly missing here. Potencies come from curve fits of mixed quality, noted in brackets.

A short description of the assay: qHTS Assay to Find Inhibitors of Chronic Active B-Cell Receptor Signaling. The conditions noted are these: ABC-DLBCL IkBa-CBG/CBR reporter, luminescence ratio (green luciferase fused to IkBa over red control in TMD8 lymphoma cells), 4 h. The method, boiled down: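 Concentration-response series (up to 46 uM) were applied to TMD8 dual-reporter cells for 4 h at 37C with doxycycline. Green/red ratio, after filter-overlap correction, defined %Activity; red signal alone was normalised to basal cells and zero luminescence.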

Setting [1] is: measured here: CBR red luminescence, cell number.
Where [2] appears, read: measured here: IkBa-CBG green luminescence.

In the case of `CC(=O)Nc1ccc(-c2csc(-c3cccnc3)n2)cc1`, the half-maximal activity concentration (AC50) – broadly, the concentration at which the activity in the assay is half-maximal – under setting [1] was 11.2 µM [rising, single point].
Consider `CCOc1ccc2nc(NC(=O)CSc3nc(SC)ns3)sc2c1`, for which the half-maximal activity concentration (AC50) under setting [1] was 1.41 µM [rising, full curve, poor fit].
On the same count and under the same terms, the same measure for `Cn1c(SCC(=O)Nc2ccc3cn[nH]c3c2)nnc1-c1cnccn1`: 35.5 µM [falling, single point]; for `COc1ccc(C(=O)NCc2ccc3c(c2)OCO3)cc1S(=O)(=O)N(C)Cc1ccccc1`: 0.0058 µM [falling, full curve, poor fit]; for `CN1CCN(c2nc3c(c(=O)n(C)c(=O)n3C)n2Cc2ccccc2)CC1`: 0.0891 µM [rising, full curve, poor fit].
On the same count and under the same terms, the value for `Nc1nc(N)nc(-c2ccccc2O)n1` was 1.78 µM [falling, partial curve, poor fit]; that for `O=[N+]([O-])c1cc(-c2n(-c3ccccn3)c3ccccc3[n+]2-c2ccccn2)ccc1Cl` was 35.5 µM [falling, partial curve, poor fit]; that for `COc1ccc(C2=Nn3c(nnc3-c3cccnc3)SC2)cc1` was 6.51 µM [falling, partial curve, poor fit].
On the same count and under the same terms, the same measure for `COc1ccccc1/C=C/C(=O)Nc1ccc2c(c1)CCC2`: 23.1 µM [falling, partial curve, poor fit]; for `CCn1c(C)nc2cc(C(=O)NNC(=S)Nc3ccccc3Cl)ccc21`: 32.6 µM [falling, single point].
For the molecule `COc1ccc(C2=CC(c3ccc(Cl)cc3)n3cnnc3N2)cc1OC` (stereo unspecified), under setting [1], the AC50 was 25.1 µM [falling, single point].
`Cc1cccc(OCCC(=O)NNC(=O)Cn2nc(C)cc2C)c1`: under setting [1], the AC50 was 23.1 µM [rising, partial curve, poor fit].
The same measure, in the same setting: the same measure for `O=C1c2ccccc2S(=O)(=O)N1CCOc1ccc(F)cc1`: 35.5 µM [rising, partial curve, poor fit]; for `Cc1ccc(C)c(C(=O)COC(=O)CCCC(=O)Nc2cc(C(F)(F)F)ccc2Cl)c1`: 3.26 µM [rising, single point]; for `N#Cc1c(Cl)nc(N/N=C/c2ccccc2)c(Cl)c1Cl`: 23.1 µM [falling, single point].
Same read-out and setting: the value for `c1cc(SSc2ccncc2)ccn1` was 22.4 µM [rising, single point]; that for `CN(C)c1ccc(/C=N/n2c(COc3ccccc3)n[nH]c2=S)cc1` was 25.9 µM [rising, single point]; that for `Cc1ccc(N2C(=O)CC(Sc3ccccc3C(=O)O)C2=O)cc1C` (stereo unspecified) was 8.91 µM [falling, partial curve].
With `COc1ccc(/C(N)=N/OC(=O)CCCc2ccccc2)cc1`, under setting [1], the AC50 was 4.61 µM [rising, full curve, poor fit].
Turning to `Cc1ccc(-c2ccc(CCC(=O)O)n2CC(=O)O)cc1`, the half-maximal activity concentration (AC50) under setting [1] is 35.5 µM [falling, single point].
Turning to `O=C(Nc1ccncc1)c1ccc2c(c1)S(=O)(=O)c1ccccc1C2=O`, under setting [1], the AC50 was 0.794 µM [rising, full curve, poor fit].
Still for that read-out and setting: the same measure for `CCn1c(C)cc(/C=C2/SC(=S)NC2=O)c1C`: 0.651 µM [rising, full curve, poor fit].
With `Nc1ccc(C2(c3ccc(N)cc3)C(=O)Nc3ccccc32)cc1`, the AC50 runs as follows: under setting [1], 20 µM [falling, partial curve, poor fit]; under setting [2], 35.5 µM [rising, partial curve, poor fit].
For `CN(CC(=O)Nc1ccc(OC(F)(F)F)cc1)C(=O)/C=C/c1cc2c(cc1[N+](=O)[O-])OCO2`, under setting [1], the half-maximal activity concentration (AC50) was 6.51 µM [rising, single point].
Regarding `COc1ccc(CN2CCSc3sccc3C2=O)cc1`, under setting [1], the AC50 is 12.6 µM [rising, single point].
Still for that read-out and setting: the same measure for `O=C(Cc1csc(NC(=O)Nc2ccc(Cl)cc2)n1)NC1CCCC1`: 1.16 µM [rising, full curve]; for `CC1(C)CC(=O)c2cnc(NC(=O)CSc3nc4ccccc4o3)nc2C1`: 2.59 µM [falling, full curve].
For `COc1ccc(C2=NOC(C(=O)N3CCN(c4ccccc4OC)CC3)C2)cc1` (stereo unspecified), the AC50 under setting [1] was 3.26 µM [rising, partial curve, poor fit].
For `Cc1cc(=O)n2nc(N3CCCC(C(=O)N4CCc5ccccc54)C3)sc2n1` (stereo unspecified), the half-maximal activity concentration (AC50) under setting [1] is 32.6 µM [rising, single point].
Still for that read-out and setting: the same measure for `COc1ccc(NC(=O)c2cccc(OC(=S)N3CCOCC3)c2)cc1`: 12.6 µM [falling, single point]; for `O=C(NCCC1=CCCCC1)c1ccc2c(c1)N(Cc1cccc(Cl)c1)C(=O)c1ccccc1S2(=O)=O`: 4.47 µM [rising, full curve, poor fit].
Same read-out and setting: the same measure for `COCCC(=O)N1CCc2c([nH]c3ccccc23)C1C(C)(C)C` (stereo unspecified): 5.62 µM [rising, single point]; for `CC(=O)Oc1ccc2occ(C(=O)c3cccs3)c2c1`: 14.1 µM [falling, single point]; for `CCCCN(CC)Cc1ccc(CNC(=S)Nc2cccc(F)c2)o1`: 12.6 µM [falling, single point].
The same measure, in the same setting: the value for `CC(C)NS(=O)(=O)c1ccc(CCC(=O)N2CCC(C(N)=O)CC2)cc1` was 10 µM [falling, partial curve]; that for `C/C(CC(=O)Nc1ccc(F)cc1)=N\NC(=O)c1ccccn1` was 7.08 µM [falling, partial curve]; that for `CCc1ccc(N(CC(=O)NC2CCCCC2)S(=O)(=O)c2c(C)noc2C)cc1` was 1.78 µM [falling, partial curve, poor fit].
Consider `COc1ccc(S(=O)(=O)N(CC(=O)Nc2cccc(C)c2)c2ccc(C)cc2)cc1OC`, for which the AC50 under setting [1] is 10 µM [falling, partial curve, poor fit].
On the same count and under the same terms, the value for `CN(C)c1ccc(C(=O)NC2CCCc3ccccc32)cc1` (stereo unspecified) was 3.98 µM [falling, partial curve, poor fit]; that for `COc1cc(NC(=O)C(C)C)ccc1NC(=O)c1cc2ccccc2o1` was 0.891 µM [rising, full curve, poor fit]; that for `O=c1c2c([nH]c3ccccc13)CCCCC2` was 6.31 µM [rising, single point].
Turning to `Cc1cc(/C=N\NC(=O)CC(=O)NC2CCCCC2)c(C)n1-c1cccc(Cl)c1Cl`, under setting [1], the concentration at half-maximal activity (AC50) is 23.1 µM [falling, single point].
Still for that read-out and setting: the same measure for `O=C(NNc1nc2c(F)cc(F)cc2s1)c1ccccc1`: 10 µM [falling, single point]; for `Cc1cccc(NC(=O)c2ccc(-n3ccnc3)nc2)c1`: 16.4 µM [falling, partial curve, poor fit].
On the same count and under the same terms, the value for `CCOC(=O)c1cccc(NC(=O)c2cncc(Br)c2)c1` was 6.51 µM [rising, partial curve, poor fit]; that for `Oc1c(N=NC(=S)Nc2ccccc2F)c2ccccc2n1Cc1ccccc1` was 15.8 µM [falling, single point].
Turning to `CC(=O)c1ccc(NC(=O)c2cc(CC(C)C)nc3ccccc23)cc1`, the AC50 under setting [1] was 35.5 µM [falling, single point].
Same read-out and setting: the same measure for `C=CC[C@H](CC(=O)N[C@H](CO)Cc1ccccc1)C(=O)N[C@@H](COC(=O)[C@@H](CC=C)Cc1ccc(F)cc1)Cc1c[nH]c2ccccc12`: 29.1 µM [falling, single point].
`O=C(OCc1ccc([N+](=O)[O-])cc1)c1cnc(Cl)c(Cl)c1`: the AC50 under setting [1] is 35.5 µM [rising, single point] and the AC50 under setting [2] is 35.5 µM [falling, single point].
As for `CN1CCN(c2cc(N3CCc4ccccc4C3)c(F)cc2[N+](=O)[O-])CC1`, under setting [1], the AC50 was 29.1 µM [falling, single point].
Same read-out and setting: the value for `Cc1ccc2c(c1)c1c(n2CC(O)CN2C(=O)CNC2=O)C(=O)CCC1` (stereo unspecified) was 5.17 µM [falling, full curve, poor fit].
Same read-out and setting: the same measure for `Cc1ccccc1-c1nnc(SCc2ccccc2F)o1`: 22.4 µM [rising, partial curve, poor fit]; for `O=C(NCCCN1CCc2ccccc2C1)Nc1ccc(Cl)cc1`: 3.55 µM [rising, single point]; for `Cc1cnc(C(=O)Nc2ccc(S(=O)(=O)NCC(C)C)cc2)cn1`: 3.55 µM [falling, full curve, poor fit].
Same read-out and setting: the value for `CCCCCn1c(N2CCN(Cc3ccccc3)CC2)nc2c1c(=O)[nH]c(=O)n2C` was 10.3 µM [rising, partial curve, poor fit].
On to `COc1ccc(C(=O)NCc2csc(C(C)C)n2)cc1OC1CCN(C(C)=O)CC1`, for which the AC50 under setting [1] is 15.8 µM [falling, single point].
Still for that read-out and setting: the same measure for `COc1ccccc1Nc1nnc(SCC(=O)NC2CC2)s1`: 2.06 µM [falling, partial curve]; for `COCc1cc(=O)n2[nH]c(C(F)(F)F)nc2n1`: 20.6 µM [rising, single point].
Regarding `CCN(CC)CCNCC(O)(c1ccc(Cl)cc1)c1ccc(Cl)cc1`, the AC50 under setting [1] was 12.6 µM [falling, single point].
As for `C/C(=N\NC(=O)c1ccc2c(c1)OCCO2)c1ccccc1`, under setting [1], the AC50 is 2 µM [falling, full curve].
The same measure, in the same setting: the same measure for `COc1ccc(NC(=O)COc2cccc3c2CCN(Cc2cccnc2)C3=O)cc1`: 6.31 µM [falling, partial curve, poor fit].
Still for that read-out and setting: the same measure for `COC(=O)c1sc(NC(=O)c2c(OC)cccc2OC)c(C#N)c1C`: 0.316 µM [rising, full curve, poor fit]; for `Cc1ccccc1NS(=O)(=O)c1cccc2nsnc12`: 6.31 µM [rising, single point]; for `CC(C)Cc1cc(C(=O)Nc2ccccc2)c2ccccc2n1`: 14.1 µM [falling, partial curve, poor fit].
